Where a name gives a salt, the structure may show the parent alone. The list shows a part of the results. Most values lie at the level of the controls, where differences are scatter.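 Reh is a human leukemia cell line; the read-out is the median γH2AX antibody signal in S-phase cells by flow cytometry, with the score counting standard deviations from the median difference of each paired set of plates. Scores above 2.5 were called candidate hits, while scores below -2 mark compounds that lowered the MK1775-induced damage.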
These compounds were tested on Reh (assay: Z' of S-phase gammaH2AX difference (drug + MK1775 minus drug alone) (Z-score); higher = stronger synergistic S-phase DNA damage with MK1775). Conditions: MK1775 concentration 400 nM; first compound 10 µM; 4 h.

Row | SMILES | Z' of S-phase gammaH2AX difference (Z-score)
1 | CCn1cc(C(=O)O)c(=O)c2cc(F)c(N3CCNC(C)C3)c(F)c21 (centres undefined) [Lomefloxacin hydrochloride] + C=CCn1c(=O)c2cnc(Nc3ccc(N4CCN(C)CC4)cc3)nc2n1-c1cccc(C(C)(C)O)n1 [MK1775] | inactive: -1.28
2 | CS(=O)(=O)Nc1ccc([N+](=O)[O-])cc1Oc1ccccc1 [Nimesulide] + C=CCn1c(=O)c2cnc(Nc3ccc(N4CCN(C)CC4)cc3)nc2n1-c1cccc(C(C)(C)O)n1 [MK1775] | inactive: 1.01
3 | O=C(O)C1=CCNCC1 [Isoguvacine hydrochloride] + C=CCn1c(=O)c2cnc(Nc3ccc(N4CCN(C)CC4)cc3)nc2n1-c1cccc(C(C)(C)O)n1 [MK1775] | inactive: -0.211
4 | CCC1=C[C@@H]2CN(C1)Cc1c([nH]c3ccccc13)[C@@](C(=O)OC)(c1cc3c(cc1OC)N(C)[C@H]1[C@@](O)(C(=O)OC)[C@H](OC(C)=O)[C@]4(CC)C=CCN5CC[C@]31[C@@H]54)C2 [Vinorelbine (Navelbine)] + C=CCn1c(=O)c2cnc(Nc3ccc(N4CCN(C)CC4)cc3)nc2n1-c1cccc(C(C)(C)O)n1 [MK1775] | inactive: -0.0954
5 | CO[C@H]1C[C@@H]2CC[C@@H](C)[C@@](O)(O2)C(=O)C(=O)N2CCCC[C@H]2C(=O)O[C@H]([C@H](C)C[C@@H]2CC[C@@H](O)[C@H](OC)C2)CC(=O)[C@H](C)/C=C(\C)[C@@H](O)[C@@H](OC)C(=O)[C@H](C)C[C@H](C)/C=C/C=C/C=C/1C [Rapamycin (Sirolimus)] + C=CCn1c(=O)c2cnc(Nc3ccc(N4CCN(C)CC4)cc3)nc2n1-c1cccc(C(C)(C)O)n1 [MK1775] | inactive: -0.163
6 | Nc1ncnc2c1ncn2C1OC(C(=O)NC2CC2)C(O)C1O (centres undefined) [5'-(N-Cyclopropyl)carboxamidoadenosine] + C=CCn1c(=O)c2cnc(Nc3ccc(N4CCN(C)CC4)cc3)nc2n1-c1cccc(C(C)(C)O)n1 [MK1775] | inactive: 1.23
7 | Oc1ccc(Nc2nc(-c3ccc(Cl)cc3)cs2)cc1 + C=CCn1c(=O)c2cnc(Nc3ccc(N4CCN(C)CC4)cc3)nc2n1-c1cccc(C(C)(C)O)n1 [MK1775] | inactive: -0.0466
8 | CNc1cc(NS(=O)(=O)c2ccc(N)cc2)nc(NC)n1 [Ro 04-6790 dihydrochloride] + C=CCn1c(=O)c2cnc(Nc3ccc(N4CCN(C)CC4)cc3)nc2n1-c1cccc(C(C)(C)O)n1 [MK1775] | inactive: -0.196
9 | CC1=C(C)C(=O)C(CCCCC#CCCCC#CCO)=C(C)C1=O + C=CCn1c(=O)c2cnc(Nc3ccc(N4CCN(C)CC4)cc3)nc2n1-c1cccc(C(C)(C)O)n1 [MK1775] | inactive: 0.204
